Some of the results follow.

The experiment addresses T1, OsSMF1 (Oryza sativa, UniProt Q6ZLB0 1-436).
T1 sequence: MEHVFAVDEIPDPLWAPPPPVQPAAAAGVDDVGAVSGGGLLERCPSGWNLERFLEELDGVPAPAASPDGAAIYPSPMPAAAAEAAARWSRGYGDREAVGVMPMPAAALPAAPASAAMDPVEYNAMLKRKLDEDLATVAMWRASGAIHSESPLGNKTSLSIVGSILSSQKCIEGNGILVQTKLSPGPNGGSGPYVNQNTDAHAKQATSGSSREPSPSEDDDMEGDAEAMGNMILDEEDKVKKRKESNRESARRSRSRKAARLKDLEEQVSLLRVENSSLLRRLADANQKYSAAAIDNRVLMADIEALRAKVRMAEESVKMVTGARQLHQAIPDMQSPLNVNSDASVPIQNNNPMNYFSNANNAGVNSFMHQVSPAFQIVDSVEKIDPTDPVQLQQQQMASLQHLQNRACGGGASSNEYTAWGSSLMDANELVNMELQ
As to the kind of experiment: protein-binding microarray (RPBM); PBS, 2% BSA, 51.3 ng/ul salmon testes DNA, 50 uM zinc acetate, 200 nM TF, 25 C, 1 h; high values mean tight binding. Particulars: protein: recombinant; tags: N-terminal polyhistidine and DsRed monomer fusion (pET32a); chain copies: 2; label: CyDye5-dUTP incorporated in the synthesized complementary strand; 3' TTTTT single-stranded linker to array surface; dsDNA, one strand shown. In a few lines: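 Binding signal is defined as the fluorescence intensity of each feature in arbitrary units, read on an Axon 4000B scanner. Transcription factors with N-terminal polyhistidine and DsRed fusions came from E. coli BL21-CodonPlus and were purified on Ni–NTA. They were incubated at 200 nM for 1 h at 25 °C on a custom Agilent array that had been made double-stranded with Cy5-dUTP, with 50 µM zinc acetate present, and the array was washed.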
In the case of “GGTTGCTGTGGTTGGCGAGGTGGGGTGGGGCTTGGAGTAACGGAGTCACCTAGTGCAG”, the binding signal was 5230 fluorescence intensity (a.u.). “AGTTGGTGATCACATTGATGATTATTCCTTATAGATTACACGGAGTCACCTAGTGCAG”: the binding signal is 3480 fluorescence intensity (a.u.). The same measure for “CTCAGCGACCCAAAACCACCTCACCAACCCAACTCTGTACCGGAGTCACCTAGTGCAG”: 3890 fluorescence intensity (a.u.). Turning to “CAAAGCGGAGAGTTACATCACGCTAAAGAGTTCGCTTCCACGGAGTCACCTAGTGCAG”, the binding signal was 3250 fluorescence intensity (a.u.). “ACACTGTGTGACATGCGTGCATATCTGCCACACATACACACGGAGTCACCTAGTGCAG”: the binding signal was 3300 fluorescence intensity (a.u.).

For “AATCAAAGTTGGGCACGGAAAATCATGGCCACTTAAAATGCGGAGTCACCTAGTGCAG”, the binding signal was 3340 fluorescence intensity (a.u.).

Take “TATTCTGCACAACACTCTGAATCACTCATCACTCACTAGTCGGAGTCACCTAGTGCAG”: the binding signal was 3290 fluorescence intensity (a.u.).

Consider “GGGCCTTACCTCGTGGAGGCGTGGAGCTGGCCCTTGCCGCCGGAGTCACCTAGTGCAG”, for which the binding signal was 4660 fluorescence intensity (a.u.). Turning to “GCTTTCTTGTCAAAACAGATCATGCCTTTTGTTTGTTCCACGGAGTCACCTAGTGCAG”, the binding signal was 3330 fluorescence intensity (a.u.). In the case of “TTAGCTGGGATGAATTGGGAATGGCTGATGATTCATTGCTCGGAGTCACCTAGTGCAG”, the binding signal is 3790 fluorescence intensity (a.u.).

Consider “GTCGAGTTGCCTACTCGCCGCCGCGTGGCCCGCCTGCCTCCGGAGTCACCTAGTGCAG”, for which the binding signal was 6100 fluorescence intensity (a.u.). The result for “ATCCTAAGAAGTGAGAACTCTAATGCTAGGTTTGGAATACCGGAGTCACCTAGTGCAG” reads 4700 fluorescence intensity (a.u.). As for “GCAGCATAGTTAGCTTTATATCTGTTTTACGTCATCACCACGGAGTCACCTAGTGCAG”, the binding signal was 6330 fluorescence intensity (a.u.).

Turning to “AATTCGTCCTCGACTCGTCTTCGTCTTCGCCTCGTCGTCCCGGAGTCACCTAGTGCAG”, the binding signal was 3440 fluorescence intensity (a.u.).

For the sequence “CAAAAGCAGCAGCGTGGGTAGCGTTGCGCGCGTGACCTGGCGGAGTCACCTAGTGCAG”, the binding signal is 4030 fluorescence intensity (a.u.). Take “AAATGGGGAGGAGTGCGGATGACATGTGGGTCCCACAAATCGGAGTCACCTAGTGCAG”: the binding signal was 3900 fluorescence intensity (a.u.). “ATCAGTACCGTCCACGCAGCCGTGACAGCAACAGAAAGACCGGAGTCACCTAGTGCAG”: the binding signal was 3200 fluorescence intensity (a.u.). As for “CAATCATCAGCCACGTCCGCCGCCGCTTCAGCTGGATCGGCGGAGTCACCTAGTGCAG”, the binding signal was 4290 fluorescence intensity (a.u.).

Consider “AATCATCGGCCAAAATTACCCGCGTGGCATTAGAGTCATGCGGAGTCACCTAGTGCAG”, for which the binding signal is 5590 fluorescence intensity (a.u.). For “CCTTATTTCTTGCTCCTGACTCAATCGCCTCCACCGACCACGGAGTCACCTAGTGCAG”, the binding signal was 5210 fluorescence intensity (a.u.).

In the case of “AAGCTCACACAAATCTGATCTGTCACCACGGATAAAGATCCGGAGTCACCTAGTGCAG”, the binding signal is 3300 fluorescence intensity (a.u.). For the sequence “TTCCTCCCGGGTTTCGAGGGCGTCAGCAACCCGGGCGCCGCGGAGTCACCTAGTGCAG”, the binding signal was 3380 fluorescence intensity (a.u.).

As for “AAGTATCTGGCGTGGCATACCAGTATTGCCATGCTAGCTACGGAGTCACCTAGTGCAG”, the binding signal is 10300 fluorescence intensity (a.u.). For “ACCACGCGACGCGCTCGCTCGCTCTCTTCCCGCACGTGTTCGGAGTCACCTAGTGCAG”, the binding signal was 3470 fluorescence intensity (a.u.). Consider “TTGTGTGGTGTGGTTGAGCTGAGGTGTAGTTAGGACAGTGCGGAGTCACCTAGTGCAG”, for which the binding signal is 3210 fluorescence intensity (a.u.).

Regarding “AAGGAGTAGCTTTGAAATTCAACTTTCAGATACACGTCAACGGAGTCACCTAGTGCAG”, the binding signal is 4600 fluorescence intensity (a.u.). For “AGTATTGAATATGACACGTCCTAGGACTACTAATCTGGACCGGAGTCACCTAGTGCAG”, the binding signal was 6340 fluorescence intensity (a.u.). Consider “CGCAAAACGCCAGCACAGTCGCAGTACAAATAAAGCTTTACGGAGTCACCTAGTGCAG”, for which the binding signal is 3980 fluorescence intensity (a.u.). As for “CCAGCACGGCACGGCACGCCGACGGCACGGCCCACTAGGGCGGAGTCACCTAGTGCAG”, the binding signal was 3940 fluorescence intensity (a.u.). The same measure for “ATGATGGTGGTGACGACTTAGCTATCTTGAAACCTGAAACCGGAGTCACCTAGTGCAG”: 3220 fluorescence intensity (a.u.). In the case of “TTTCTTCGTAGTGTAGATGCAAAAGGCATTAAGTGTTTGCCGGAGTCACCTAGTGCAG”, the binding signal is 3280 fluorescence intensity (a.u.). “GAAATTCATGATGTGTCAACCTAACCCTAATAGGCTACTTCGGAGTCACCTAGTGCAG”: the binding signal was 4780 fluorescence intensity (a.u.). Take “CTAGAATGAGTGTTATGGCAGAGTGGTAGATGCTTGAAAACGGAGTCACCTAGTGCAG”: the binding signal was 29600 fluorescence intensity (a.u.).

Turning to “CAACAAGCGGGTGGCTGGAAGGTGTGTGTGTGAGAGAGAGCGGAGTCACCTAGTGCAG”, the binding signal is 3180 fluorescence intensity (a.u.). Regarding “ACAATGTGTTTATATATCTCCCACGTGGATTAATTGCTACCGGAGTCACCTAGTGCAG”, the binding signal is 5540 fluorescence intensity (a.u.). With “TAGTTGTGACACGTAGAAGTTGAATTTTAACTTTTATGTTCGGAGTCACCTAGTGCAG”, the binding signal was 4370 fluorescence intensity (a.u.).

In the case of “CATACTCGATCTTTATCGTCTCGAAAGTCGGAACACCAGTCGGAGTCACCTAGTGCAG”, the binding signal is 34700 fluorescence intensity (a.u.). Turning to “GTAGCTGACCCATGCTGTGAGCAGCGTCATGCCTGACGCGCGGAGTCACCTAGTGCAG”, the binding signal is 4160 fluorescence intensity (a.u.). Turning to “TTGAGATGTGTGCTCAGACAGTCACAACACCACGTTGACCCGGAGTCACCTAGTGCAG”, the binding signal is 3730 fluorescence intensity (a.u.). The same measure for “TGCTCCGCGCGTGCGGCGCTAGGGTTTCCTTCCTTCCTTCCGGAGTCACCTAGTGCAG”: 3220 fluorescence intensity (a.u.); for “GTCCGCTGTTGAGCTTGTGCTACACGTGGCATGGTCCTCCCGGAGTCACCTAGTGCAG”: 12700 fluorescence intensity (a.u.); for “AATCGTGGATGGGGAATCGGTGACGCGCGGGTGGGGCGACCGGAGTCACCTAGTGCAG”: 4090 fluorescence intensity (a.u.).

For the origin of these results see publication PMC7819943, “Rice protein-binding microarrays: a tool to detect cis-acting elements near promoter regions in rice”.
